# Assay results from PubChem BioAssay AID1671190 (National Center for Advancing Translational Sciences (NCATS), 2021).
# The chains behind the UniProt entries cited, without tags or fusion partners.
# UniProt P18054, whole entry, looked up: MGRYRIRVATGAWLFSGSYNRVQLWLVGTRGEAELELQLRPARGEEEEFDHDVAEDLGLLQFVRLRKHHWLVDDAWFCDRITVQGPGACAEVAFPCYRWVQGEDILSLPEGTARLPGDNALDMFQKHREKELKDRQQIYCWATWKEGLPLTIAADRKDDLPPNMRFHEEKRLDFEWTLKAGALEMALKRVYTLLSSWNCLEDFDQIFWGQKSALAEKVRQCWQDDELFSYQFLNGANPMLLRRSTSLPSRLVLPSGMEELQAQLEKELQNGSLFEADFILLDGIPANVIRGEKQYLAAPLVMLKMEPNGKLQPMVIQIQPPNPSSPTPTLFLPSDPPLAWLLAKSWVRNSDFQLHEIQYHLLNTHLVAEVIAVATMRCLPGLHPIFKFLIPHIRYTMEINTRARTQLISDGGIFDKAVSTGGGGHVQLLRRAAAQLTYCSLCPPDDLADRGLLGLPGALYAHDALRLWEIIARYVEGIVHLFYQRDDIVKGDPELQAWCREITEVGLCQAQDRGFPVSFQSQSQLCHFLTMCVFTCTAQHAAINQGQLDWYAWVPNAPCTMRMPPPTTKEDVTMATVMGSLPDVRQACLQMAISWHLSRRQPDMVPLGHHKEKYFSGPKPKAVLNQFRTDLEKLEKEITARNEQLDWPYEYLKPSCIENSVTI
# Among all 580,000 compounds or so, about 6,100 (1.1%) were called active. Inconclusive results, whose numbers are uncertain, are shown with a selection of clear calls. Calls come from the whole dose curve; as a rule, active = well fitted inhibition curve with a large enough effect; inconclusive = small, poorly fitted or top-dose-only effect, or another doubt; inactive = no such curve, though single readings can be large or run the other way. A potency beside an inconclusive call is a rough fit, not a confirmed value.
# Target: Polyunsaturated fatty acid lipoxygenase ALOX12 (Homo sapiens) (UniProt P18054)
# Experiment: Primary qHTS assay for inhibitors of human arachidonate 12S-lipoxygenase (ALOX12): Round 2
# Settings: purified 12hLO, xylenol orange hydroperoxide absorbance; activity change, negative = inhibition: at 108 µM (top of the series) unless noted
# In short: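 Hydroperoxide product was detected by ferrous iron/xylenol orange as the 573 to 405 nm absorbance ratio. Arachidonic acid at 40 uM (final) was turned over for 30 min at room temperature by 150 nM human 12hLO, pH 7.0 Hepes buffer, after 15 min compound preincubation.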
# % is set by controls: 0 for no effect and ±100 for the full control effect; potency is the fitted concentration of half-maximal effect.
Compound,Potency,"activity change, negative = inhibition"
COc1cc(NC(=S)NC(=O)c2ccc(C)cc2C)ccc1NC(=O)c1cccs1,active: 5.01 µM,
N#Cc1ccccc1OCC(=O)NNC(=O)C1COc2ccccc2O1 (configuration not stated),inactive,
Cc1ccc(CNC(=O)CSc2nc3n[nH]c(C)c3c(=N)n2-c2cccc(C)c2)cc1,inactive,
Cc1ccc(S(=O)(=O)/C(C#N)=C/c2c(C)[nH]c3ccccc23)cc1,"inconclusive: 35.5 µM [inhibitor, partial curve, poor fit]",
CCCCCCCCS(=O)CC(O)CCl (configuration not stated),"inconclusive: 28.2 µM [inhibitor, partial curve]",
COc1ccc(NC(=O)Cn2nc(C(=O)O)c3ccccc3c2=O)cc1Cl,"inconclusive: 39.8 µM [inhibitor, partial curve, poor fit]",
CCC(CC(C)(C)O)C(=O)NNC(=S)Nc1ccccc1 (configuration not stated),"inconclusive: 70.8 µM [inhibitor, partial curve, poor fit]",
CC(C)(C)c1cc(/C=N/O)cc(C(C)(C)C)c1O,"inconclusive: 35.5 µM [inhibitor, partial curve]",
COc1ccc(N(CC(=O)N2CCN(c3ccc(F)cc3)CC2)S(=O)(=O)c2c(C)n[nH]c2C)cc1,inactive,
COc1ccc(-c2noc(-c3ccc(N4CCC(C)CC4)c([N+](=O)[O-])c3)n2)cc1OC,inactive,
CCN1CCN(c2ccc(NC(=O)CCc3c(C)nc4c(-c5ccccc5)c(C)nn4c3C)cc2)CC1,"inconclusive: 89.1 µM [inhibitor, single point]",
Cc1ccc(N2C(=O)CC(Sc3ncccn3)C2=O)cc1C (configuration not stated),"inconclusive: 0.501 µM [inhibitor, full curve, poor fit]",
COc1cc(CN2CCN(c3ccccc3C)CC2)cc([N+](=O)[O-])c1O,"inconclusive: 5.01 µM [inhibitor, full curve, poor fit]",
CCC(=O)Nc1sc(Cc2ccc3c(c2)OCO3)c(C)c1C(N)=O,"inconclusive: 35.5 µM [inhibitor, single point]",
Cc1cccc(-n2c(SCC(=O)N3CCOCC3)nc3ccccc3c2=O)n1,inactive,
COc1cc(OC)cc(-c2cc3nc(C)c(CCC(=O)NC(C)CCc4ccco4)c(C)n3n2)c1 (configuration not stated),inactive,
COc1ccc(C)cc1-c1nccc2c(=O)cc(-c3cnn(C)c3)oc12,"inconclusive: 39.8 µM [inhibitor, partial curve]",
Cc1ccc(-c2cnc(CCC(=O)Nc3nc4ccccc4s3)o2)cc1C,"inconclusive: 25.1 µM [inhibitor, single point]",
COc1ccc(C2=NOC(Cn3nc(-c4ccccc4)cc3C(=O)NCc3cccs3)C2)cc1 (configuration not stated),inactive,
Cc1ccccc1-c1nc(N(C)C)c2ccccc2n1,"inconclusive: 63.1 µM [inhibitor, partial curve, poor fit]",
O=C(Nc1ccc(S(=O)(=O)Nc2nccs2)cc1)c1cc(-c2ccccc2)nc2ccccc12,inactive,
CS(=O)(=O)c1cccc(C(=O)NCc2coc(-c3cccs3)n2)c1,inactive,
Cc1cc(Cl)c(C(=O)Nc2cccc(C(F)(F)F)c2)c(C)n1,"inconclusive: 44.7 µM [inhibitor, partial curve, poor fit]",

Compound,Potency,"activity change, negative = inhibition"
Cc1c(C(=O)NCc2ccccn2)oc2c(Cl)cccc12,inactive,
OC(C#CCN1CCCC1)(c1ccccc1)c1ccccc1,"inconclusive: 50.1 µM [inhibitor, partial curve, poor fit]",
Cc1c2occ(C(C)(C)C)c2cc2c3c(/c(=N\O)oc12)CCCC3,"inconclusive: 35.5 µM [inhibitor, partial curve, poor fit]",
CCN1C(=O)CC(c2ccccc2)CC1=O,"inconclusive: 112 µM [inhibitor, single point]",
NC(=S)N/N=C/c1ccccc1OCCSc1ccc(Cl)cc1,"inconclusive: 44.7 µM [inhibitor, partial curve, poor fit]",
O=C(NCC#Cc1ccccc1)c1cnc(-c2ccccc2)nc1,inactive,
CC(C)N1C[C@H](O)C[C@H]1c1nnc2n1CCN(C(=O)c1ccc3ncccc3c1)C2,inactive,
COCC(=O)NNC(=S)NCC(C)C,inactive,
CCC1(C)CC(=O)N(c2ccc(C(=O)O)c(O)c2)C1=O (configuration not stated),"inconclusive: 35.5 µM [inhibitor, single point]",
CC(=O)C(C)Oc1ccc2c3c(c(=O)oc2c1)CCCC3 (configuration not stated),inactive,
Cc1ccccc1S(=O)(=O)n1cc2c(=O)n(C)c(=O)n(C)c2n1,"inconclusive: 39.8 µM [inhibitor, partial curve, poor fit]",
CC(NC(=O)c1nn(C)c(=O)c2ccccc12)c1cccs1 (configuration not stated),inactive,
CCC(Sc1nc2ccsc2c(=O)n1CCC(=O)O)C(=O)Nc1ccc(Cl)cc1 (configuration not stated),inactive,
Cc1cc(C)cc(NC(=O)C2CCN(S(=O)(=O)c3ccc4c(c3)oc(=O)n4C)CC2)c1,"inconclusive: 141 µM [inhibitor, partial curve, poor fit]",
CC(=O)c1cccc(NC(=O)CSCc2ccccc2)c1,"inconclusive: 50.1 µM [inhibitor, partial curve, poor fit]",
CC1=Nc2ccc(C)cc2/C1=C/c1c(N)n2oc(C)cc2nc1=O,inactive,
CC1Cc2cc(-c3csc(NC4CCCC4)n3)ccc2N1S(C)(=O)=O (configuration not stated),"inconclusive: 44.7 µM [inhibitor, partial curve, poor fit]",
COc1cc(OC)cc(C(=O)NCc2n[nH]c(=S)n2-c2ccccc2)c1,"inconclusive: 44.7 µM [inhibitor, partial curve, poor fit]",
N#CC(c1ccc(F)cc1)c1ccc(C(=O)c2ccc(F)cc2)cc1 (configuration not stated),inactive,
C=C(CCC(=O)c1ccccc1)C(=O)c1ccccc1,inactive,
CN(C)CCN1CCCN(C(=O)CCc2ccccc2)c2ccccc21,inactive,
Cn1c(=O)c2cc(C(=O)Nc3nc(-c4ccc(C(C)(C)C)cc4)cs3)cnc2n(C)c1=O,"inconclusive: 56.2 µM [inhibitor, partial curve, poor fit]",
COc1cc(NC(=S)NCc2cccs2)cc(OC)c1,"inconclusive: 25.1 µM [inhibitor, full curve, poor fit]",

# Given tab-delimited: two of the compounds above.
Compound	Potency	activity change, negative = inhibition
Cc1ccccc1S(=O)(=O)n1cc2c(=O)n(C)c(=O)n(C)c2n1	inconclusive: 39.8 µM [inhibitor, partial curve, poor fit]	
CC(NC(=O)c1nn(C)c(=O)c2ccccc12)c1cccs1 (configuration not stated)	inactive	

# Next records:

Compound,Potency,"activity change, negative = inhibition"
O=C(c1ccc2c(c1)OCO2)N1CCC2(CC1)NC(=O)N(c1ccccc1)N2,active: 5.01 µM,
COc1ccc(OC)c(CNC(=O)c2ccc3noc(-c4ccc(C)cc4)c3c2)c1,"inconclusive: 126 µM [inhibitor, single point]",
COc1ccc(/C(O)=C2/C(=O)C(=O)N(CCCC(=O)O)C2c2ccc(OC)c(OC)c2)cc1 (configuration not stated),"inconclusive: 3.55 µM [inhibitor, full curve, poor fit]",
Cn1nccc1CN1CCC2(C1)NC(=O)c1ccccc1O2 (configuration not stated),"inconclusive: 31.6 µM [inhibitor, single point]",
CC(C)n1ncc2cc(NC(=O)CCc3ncc(-c4ccccc4F)o3)cnc21,"inconclusive: 44.7 µM [inhibitor, partial curve, poor fit]",
C[C@H]1CCC(=O)N([C@H](COc2ccccc2)Cc2ccccc2)CC1,"inconclusive: 50.1 µM [inhibitor, partial curve, poor fit]",
O=C(COC(=O)c1cc(S(=O)(=O)N2CCOCC2)ccc1F)Nc1ccc(Cl)cn1,"inconclusive: 44.7 µM [inhibitor, partial curve, poor fit]",
COC(=O)C1=C(C)N(Cc2ccccc2C(F)(F)F)C(=NCc2ccc(C(F)(F)F)cc2)NC1c1ccc(F)cc1 (configuration not stated),"inconclusive: 79.4 µM [inhibitor, partial curve, poor fit]",
COc1ccc(C(=O)CN2C(=O)COc3ccccc32)cc1,"inconclusive: 28.2 µM [inhibitor, partial curve, poor fit]",
CC(C)c1ccc(Nc2c(-c3ccco3)nc3ccccn23)cc1,"inconclusive: 56.2 µM [inhibitor, partial curve, poor fit]",
CN(CC(=O)NCCc1ccc(S(N)(=O)=O)cc1)CC(=O)Nc1ccc(Cl)cc1,"inconclusive: 63.1 µM [inhibitor, partial curve, poor fit]",
OC[C@H]1OC(Nc2ccc(N=Nc3ccccc3)cc2)[C@@H](O)[C@@H](O)[C@@H]1O (some centres not stated),inactive,
CN(C)C(Cc1ccccc1)C(=O)c1cc2ccccc2o1 (configuration not stated),"inconclusive: 17.8 µM [inhibitor, full curve, poor fit]",
COc1ccc(C(=O)NC(=S)NNC(=O)c2c(-c3ccccc3)noc2C)cc1OC,"inconclusive: 141 µM [inhibitor, single point]",
O=C(NC1CC1)c1cc(-c2ccco2)nc2ccccc12,"inconclusive: 44.7 µM [inhibitor, partial curve, poor fit]",
CC1CCN(C(=O)C2CCN(C(=O)c3cc4sccc4n3Cc3ccc(F)cc3)CC2)CC1,,inconclusive: -31.6% [inhibitor]
CCN(CC)C1CCOC2(CCN(C(=O)C(C)C)CC2)C1 (configuration not stated),inactive,
CCN1/C(=C/c2ccc3cc(C)ccc3[n+]2CC)Sc2cc(C)ccc21,active: 35.5 µM,
CCOC(=O)c1ccc(NC(=O)c2ccc(C)c(S(=O)(=O)N3CCOCC3)c2)cc1,inactive,
CN(C)CCn1cc(C(=O)c2cc(Cl)ccc2O)cc1-c1nc2ccccc2c(=O)[nH]1,"inconclusive: 44.7 µM [inhibitor, partial curve, poor fit]",
CCC1Oc2ccc(NS(=O)(=O)c3ccc(C)c(F)c3)cc2CN(Cc2ccc(OC)cc2)C1=O (configuration not stated),"inconclusive: 10 µM [inhibitor, full curve, poor fit]",

# Copied from the list.
# N#CC(c1ccc(F)cc1)c1ccc(C(=O)c2ccc(F)cc2)cc1 (configuration not stated) | Potency: inactive
# CCC(Sc1nc2ccsc2c(=O)n1CCC(=O)O)C(=O)Nc1ccc(Cl)cc1 (configuration not stated) | Potency: inactive
# Cc1ccc(-c2cnc(CCC(=O)Nc3nc4ccccc4s3)o2)cc1C | Potency: inconclusive: 25.1 µM [inhibitor, single point]
# C=C(CCC(=O)c1ccccc1)C(=O)c1ccccc1 | Potency: inactive
